Experimental data: patent US8440619B2, “Utilization of hypertension/hypercardia-preventing effect of D-allose” (National University Corporation Kagawa University, priority 2005, dated 2013)

Legend:
Type in all cases: in vivo, rat
[1] = Urine generation, Na and protein excretion in urine in DS rats; conditions: 4% salt diet, 2 g daily/kg orally, after 4-week feeding
Excerpt: (§1) Salt-sensitive male Dahl rats of age 7 weeks and with the onset of hypertension (DS) and salt-insensitive male Dahl rats of the same age (DR) were used. The DS rats were fed with a 0.5% salt diet or a 4% salt diet (Oriental Yeast Co., Ltd.) for 4 weeks (individually referred to as 0.5% salt diet group and 4% salt diet group). During the period, D-allose or D-glucose was orally given to the 4% salt diet group at 2 g daily/kg body weight (D-allose group or D-glucose group). The DR rats were fed with the 0.5% salt diet group and used as a normal control group. Blood pressure was measured by the tail-cuff method over time, while before salt loading and on the completion of salt loading, urine was collected for one day. On the last day of the observation period, the thoracic aorta was resected. A part thereof was used to quantify the amount of generated active oxygen in the aorta by the lucigenin method, while another part thereof was used to compare the amount of generated active oxygen between the groups by the dihydroxyethidium (DHE) fluorescence method. So as to assay the expression level of the messenger RNA of the NADPH oxidase involved in the increase of tissue oxidative stress (J Hypertens. 2004; 22:2161-2168), further, the renal cortex and the thoracic aorta were partially stored at −80° C.

[2] = Body weight, heart weight and kidney weight in SHR; conditions: 2 g daily/kg orally
Excerpt: Male spontaneously hypertensive rats of age 8 weeks (SHR) and male Wister KYOTO rats (WKY) of the same age were used. SHR was fed with a 0.5% salt diet or a 8% salt diet (Oriental Yeast Co., Ltd.) for 4 weeks (individually referred to as the 0.5% salt diet group and the 8% salt diet group). Additionally, D-allose or D-glucose was orally given to the 0.5% salt diet group and the 8% salt diet group, at 2 g daily/kg body weight (D-allose group or D-glucose group) during the period. WKY was fed with the 0.5% salt diet and used as a normal control group. Systolic blood pressure was measured by the tail-cuff method over time.

[3] = Body weight, organ weight and feed intake in DS rats; conditions: 4% salt diet, 2 g daily/kg orally; for Body weight: after 4-week feeding
Excerpt: as §1

Structure (SMILES) | Na excretion in urine [1] [mEq/day] | Urine volume [1] [mL/day] | Weight after 4 weeks ([2]; 0.5% salt diet) [g] | Weight after 4 weeks ([2]; 8% salt diet) [g] | feed intake [3] [g/day/rat] | Body weight [3] [g]
O=C[C@H](O)[C@H](O)[C@H](O)[C@H](O)CO [D-allose] | 126 ± 6 | 28.7 ± 2.2 | 292 ± 4 | 304 ± 6 | 20.6±0.8 | 345 ± 7
O=C[C@H](O)[C@@H](O)[C@H](O)[C@H](O)CO [D-glucose] | 123 ± 7 | 32.0 ± 2.9 | 301 ± 4 | 306 ± 5 | 21.4±0.8 | 356 ± 10
